Data from doi:10.1101/2025.11.23.689998.
No constants are given. Whether binding was seen depends on the method and setting. Binding seen in cells or lysates may run through a third protein. Here binding means that the protein was enriched with, or labelled near, the bait; the list need not be complete.

Amino acid sequences for entries named in this document (tags omitted).
UniProt P14713: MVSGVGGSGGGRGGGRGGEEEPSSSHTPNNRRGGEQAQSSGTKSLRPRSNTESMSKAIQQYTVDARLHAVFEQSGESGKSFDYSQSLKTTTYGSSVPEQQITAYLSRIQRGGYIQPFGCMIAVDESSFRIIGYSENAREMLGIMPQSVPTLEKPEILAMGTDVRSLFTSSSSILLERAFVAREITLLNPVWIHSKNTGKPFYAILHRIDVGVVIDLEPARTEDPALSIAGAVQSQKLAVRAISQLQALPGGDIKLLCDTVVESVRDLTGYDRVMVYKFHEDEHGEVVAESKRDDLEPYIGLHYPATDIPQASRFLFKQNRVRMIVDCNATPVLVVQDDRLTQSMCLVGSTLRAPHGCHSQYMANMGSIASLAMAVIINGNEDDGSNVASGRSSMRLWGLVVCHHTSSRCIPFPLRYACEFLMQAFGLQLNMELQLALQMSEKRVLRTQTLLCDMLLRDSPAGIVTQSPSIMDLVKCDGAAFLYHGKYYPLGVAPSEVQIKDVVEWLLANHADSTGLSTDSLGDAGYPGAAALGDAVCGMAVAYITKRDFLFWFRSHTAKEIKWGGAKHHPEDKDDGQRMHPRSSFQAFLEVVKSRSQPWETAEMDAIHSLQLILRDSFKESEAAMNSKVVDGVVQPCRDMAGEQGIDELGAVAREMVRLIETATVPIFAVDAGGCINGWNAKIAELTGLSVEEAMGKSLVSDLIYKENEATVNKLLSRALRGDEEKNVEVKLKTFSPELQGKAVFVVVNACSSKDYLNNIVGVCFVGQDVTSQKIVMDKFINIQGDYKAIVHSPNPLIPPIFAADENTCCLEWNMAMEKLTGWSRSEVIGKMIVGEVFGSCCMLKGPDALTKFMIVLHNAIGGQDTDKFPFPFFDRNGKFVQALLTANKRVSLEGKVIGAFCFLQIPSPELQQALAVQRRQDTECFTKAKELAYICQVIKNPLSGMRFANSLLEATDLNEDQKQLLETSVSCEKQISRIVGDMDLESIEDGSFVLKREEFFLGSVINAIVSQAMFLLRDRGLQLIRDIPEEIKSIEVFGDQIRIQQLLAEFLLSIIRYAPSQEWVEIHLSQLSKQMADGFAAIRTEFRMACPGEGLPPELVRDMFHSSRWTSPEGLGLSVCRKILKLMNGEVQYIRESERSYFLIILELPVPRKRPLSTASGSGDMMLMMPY

B1: LRR-like receptor At5g66900 (receptor, UniProt Q9FKZ1 1-809)
chain: MNDWASLGIGSIGEAVFSKLLKVVIDEAKKFKAFKPLSKDLVSTMEILFPLTQKIDSMQKELDFGVKELKELRDTIERADVAVRKFPRVKWYEKSKYTRKIERINKDMLKFCQIDLQLLQHRNQLTLLGLTGNLVNSVDGLSKRMDLLSVPAPVFRDLCSVPKLDKVIVGLDWPLGELKKRLLDDSVVTLVVSAPPGCGKTTLVSRLCDDPDIKGKFKHIFFNVVSNTPNFRVIVQNLLQHNGYNALTFENDSQAEVGLRKLLEELKENGPILLVLDDVWRGADSFLQKFQIKLPNYKILVTSRFDFPSFDSNYRLKPLEDDDARALLIHWASRPCNTSPDEYEDLLQKILKRCNGFPIVIEVVGVSLKGRSLNTWKGQVESWSEGEKILGKPYPTVLECLQPSFDALDPNLKECFLDMGSFLEDQKIRASVIIDMWVELYGKGSSILYMYLEDLASQNLLKLVPLGTNEHEDGFYNDFLVTQHDILRELAICQSEFKENLERKRLNLEILENTFPDWCLNTINASLLSISTDDLFSSKWLEMDCPNVEALVLNLSSSDYALPSFISGMKKLKVLTITNHGFYPARLSNFSCLSSLPNLKRIRLEKVSITLLDIPQLQLSSLKKLSLVMCSFGEVFYDTEDIVVSNALSKLQEIDIDYCYDLDELPYWISEIVSLKTLSITNCNKLSQLPEAIGNLSRLEVLRLCSSMNLSELPEATEGLSNLRFLDISHCLGLRKLPQEIGKLQNLKKISMRKCSGCELPESVTNLENLEVKCDEETGLLWERLKPKMRNLRVQEEEIEHNLNLLQMF
B2: BRI1-ASSOCIATED RECEPTOR KINASE (receptor, UniProt Q94F62 26-615)
chain: NAEGDALSALKNSLADPNKVLQSWDATLVTPCTWFHVTCNSDNSVTRVDLGNANLSGQLVMQLGQLPNLQYLELYSNNITGTIPEQLGNLTELVSLDLYLNNLSGPIPSTLGRLKKLRFLRLNNNSLSGEIPRSLTAVLTLQVLDLSNNPLTGDIPVNGSFSLFTPISFANTKLTPLPASPPPPISPTPPSPAGSNRITGAIAGGVAAGAALLFAVPAIALAWWRRKKPQDHFFDVPAEEDPEVHLGQLKRFSLRELQVASDNFSNKNILGRGGFGKVYKGRLADGTLVAVKRLKEERTQGGELQFQTEVEMISMAVHRNLLRLRGFCMTPTERLLVYPYMANGSVASCLRERPESQPPLDWPKRQRIALGSARGLAYLHDHCDPKIIHRDVKAANILLDEEFEAVVGDFGLAKLMDYKDTHVTTAVRGTIGHIAPEYLSTGKSSEKTDVFGYGVMLLELITGQRAFDLARLANDDDVMLLDWVKGLLKEKKLEALVDVDLQGNYKDEEVEQLIQVALLCTQSSPMERPKMSEVVRMLEGDGLAERWEEWQKEEMFRQDFNYPTHHPAVSGWIIGDSTSQIENEYPSGPR
B3: MnSOD1 (enzyme, UniProt O81235 30-231)
chain: TFTLPDLPYDYGALEPAISGEIMQIHHQKHHQAYVTNYNNALEQLDQAVNKGDASTVVKLQSAIKFNGGGHVNHSIFWKNLAPSSEGGGEPPKGSLGSAIDAHFGSLEGLVKKMSAEGAAVQGSGWVWLGLDKELKKLVVDTTANQDPLVTKGGSLVPLVGIDVWEHAYYLQYKNVRPEYLKNVWKVINWKYASEVYEKENN
B4: LRR-like receptor At5g45510 (receptor, UniProt Q8VZC7 1-1222)
chain: MSDPLKMAAETEEIKPVPAAMGEKKDVVLCKKIVETLGGGGDQRVLLVGEAGIGKTRMAQMVDKEASKDVLCYQTLWLHLNRKFKVNDNYIKEKKFEDEWSLYENIASQLSLYSDFEETEVGERDEDEEEEKKVEDLLKDLKPKIEKYLLEKKEAVVKKLEDDKKKKEKEAAEKLEAEKKLVDPAAKKAKDHGNKNPTDAAKEKTTQVVAGGEDKAQTSSERKPYLLLILDDEGMTSEYEVMVHLGLEDFLKDHTPRKILITRRQETEEATKSGEHAEGEANDSQSGEKKEDTDGEDEIRSADKEEPESQARVKTEEKHEKVVPPTIDDLWGSTNTYGEITFQTTNESQDLLESFNLKEAEALFTSSMFFKDMPNFFFDPVPGTDEKLLNHMLKKSKSLPAAINVLAKSLEYTVKSKSYKLNKDEEERLLKEKIEMVLSAERGNPSDQESSSESPKKASGENPILLLAYKLFKTDGPLKDTILDCFWHSLDFFEHCGCVYYRDLITQWILEGYFDPVRSVEKAYQDGHSIFMELIDRGMLKIQENNVVVPEMAMRNVIDPRRGGHLGKSRLGFSRVYGGNKRKGIGKITQLDDMIKTVQAKKGDKITTILVSGDRLRRVTPKKFFKNLKELEVLGLFEPTVKPFVPSFSDQLKLLRVLIIRDCDLLKSIEELKALTKLNTLEVSGASSLSKISEKFFESFPELRSLHLSGLKIESSPPSISGLKELHCLIIKDCPLLQDLPNIQELVNLEVVDVSGASGLRTCFDNADGAKKNKSKNKNFYLLTKLQHLDFSGSQIERLPIFQDSAVAAKLHSLTRLLLRNCSKLRRLPSLKPLSGLQILDLSGTTSLVEMLEVCFEDKLELKTLNLSGTNLSELATTIEDLSSLNELLLRDCINLDAIPNIEKLENLEVIDVSGSAKLAKIEGSFEKMFYLRVVDLSGTQVETPELPADTKIHCLKRFTRADGKCFERDTWREIKEDIERDRSENASSSDAVVISQEITEKKPVEIREVESNAPRASDCTEKVDVNKERLLKVPIDRALYQKALTSLVDSKIPQEEVLEINETNKLDEEALASAEFVSFVDCTPERVKSIFEKAKLVKGCWLRMCFDIKDPFDGVDEENLKSLETLSITNLLSLETISFIAKLENLKNLSLDCCPKIKTIFPEMPASLPVLNLKHCENLEKVVVGVEVSTHTNLDLKVENCPKFGDYVMVDHSDVPPPHEC
B5: LRR-like receptor At5g48620 (receptor, UniProt Q9FJK8 1-908)
chain: MAEGFVSFGLEKLWDLLSRESERLQGIDEQLDGLKRQLRSLQSLLKDADAKKHGSDRVRNFLEDVKDLVFDAEDIIESYVLNKLRGEGKGVKKHVRRLARFLTDRHKVASDIEGITKRISDVIGEMQSFGIQQIIDGVRSLSLQERQRVQREIRQTYPDSSESDLVGVEQSVEELVGHLVENDIYQVVSIAGMGGIGKTTLARQVFHHDLVRRHFDGFAWVCVSQQFTLKHVWQRILQELQPHDGNILQMDESALQPKLFQLLETGRYLLVLDDVWKKEDWDRIKAVFPRKRGWKMLLTSRNEGVGIHADPTCLTFRASILNPEESWKLCERIVFPRRDETEVRLDEEMEAMGKEMVTHCGGLPLAVKALGGLLANKHTVPEWKRVSDNIGSQIVGGSCLDDNSLNSVNRILSLSYEDLPTHLKHRFLYLAHFPEDSKIYTQDLFNYWAAEGIYDGSTIQDSGEYYLEELVRRNLVIADNRYLSLEFNFCQMHDMMREVCLSKAKEENFLQIIKDPTSTSTINAQSPSRSRRFSIHSGKAFHILGHRNNPKVRSLIVSRFEEDFWIRSASVFHNLTLLRVLDLSRVKFEGGKLPSSIGGLIHLRYLSLYGAVVSHLPSTMRNLKLLLFLNLRVDNKEPIHVPNVLKEMLELRYLSLPQEMDDKTKLELGDLVNLEYLWYFSTQHSSVTDLLRMTKLRNLGVSLSERCNFETLSSSLRELRNLEMLNVLFSPEIVMVDHMGEFVLDHFIHLKQLGLAVRMSKIPDQHQFPPHLAHIHLVHCVMKEDPMPILEKLLHLKSVALSYGAFIGRRVVCSKGGFPQLCALGISGESELEEWIVEEGSMPCLRTLTIHDCEKLKELPDGLKYITSLKELKIREMKREWKEKLVPGGEDYYKVQHIPDVQFINCDL
B6: CRK17 (receptor, UniProt Q8L710 27-686)
chain: QQTCDNTAGSFKPNSTYDNNRRLLLSTFASNVTAQNGYFNGSFGLGTDRVYAMGMCAPGAEPDVCSNCIKNTAEGLLQICLNQTDGFSWSGEETLCLVRYSNKSFSGLLGLEPSNDFFNVNEIRKEDQKEFDSVFDELMFRTIQGASSSVRNNSNSLSLSGKYYAKDVAPEPVYGNISVVMQCTPDVSSKDCNLCLERSLDFYKKWYNGKRGTIILRPSCFFRWELYTFFGAFDSINARHPPPPPRPLSPPPLKTPSVTNQTNITKKNDSRISGGTIAAIVVVVVVTIILIVVGLVICKRRKQKQEIELPIVLNEAESVQFDLKTIEAATGNFSEHNKLGAGGFGEVYKGMLLNGTEIAVKRLSKTSGQGEIEFKNEVVVVAKLQHINLVRLLGFSLQGEEKLLVYEFVPNKSLDYFLFDPNKRNQLDWTVRRNIIGGITRGILYLHQDSRLKIIHRDLKASNILLDADMNPKIADFGMARIFGVDQTVANTARVVGTFGYMSPEYVTHGQFSMKSDVYSFGVLILEIISGKKNSSFYQMDGLVNNLVTYVWKLWENKTMHELIDPFIKEDCKSDEVIRYVHIGLLCVQENPADRPTMSTIHQVLTTSSITLPVPQPPGFFFRNGPGSNPSSQGMVPGQSSSKSFTSSVDEATITQVNPR

target: phyB-miniTurbo (phyB CDS - miniTurbo-sCFP3A-3FLAG) (Arabidopsis thaliana) (UniProt P14713); experiment: proximity labelling

binding, binds:
B1, B2, B3, B4, B5, B6
